# Results from PubChem BioAssay AID493014 (National Center for Advancing Translational Sciences (NCATS), 2011).
# The other results are listed elsewhere or left out. Further columns of the screen follow, without active or inactive calls. Compounds called inactive in the main read-out are mostly missing here. Potencies come from curve fits of mixed quality, noted in brackets.
# Assay: qHTS Assay to Find Inhibitors of Chronic Active B-Cell Receptor Signaling
# Details: ABC-DLBCL IkBa-CBG/CBR reporter, luminescence ratio (green luciferase fused to IkBa over red control in TMD8 lymphoma cells), 4 h
# Method in brief: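 Doxycycline induced both beetle luciferases in TMD8 lymphoma cells; IKK-driven degradation limits the IkappaBalpha-fused green signal, while red luminescence normalises for cell number and nonspecific effects. Compounds tested up to 46 uM, 4 hrs.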
# [1] = measured here: CBR red luminescence, cell number
# [2] = measured here: IkBa-CBG green luminescence
Structure (SMILES),AC50 [1],AC50 [2]
COc1cc(OC)cc(-n2nc(C(=O)N3CCC4(CC3)OCCO4)c3ccccc3c2=O)c1,"10.3 µM [rising, partial curve, poor fit]",
Cc1ccc(N2C(=O)NC(=O)C3(Cc4ccccc4N4CCN(c5ccccc5)CC43)C2=O)cc1 (configuration not stated),"2.82 µM [falling, full curve]",
CCCCCCn1c(N2CCC(C)CC2)nc2c1c(=O)[nH]c(=O)n2C,"20 µM [rising, single point]",
c1ccc2c(c1)-c1cccc3cccc-2c13,"25.9 µM [rising, partial curve, poor fit]",
O=c1c2ccccc2nc(/C=C/c2ccc(O)cc2)n1-c1ccc(O)cc1,"8.91 µM [falling, partial curve, poor fit]",
O=C(OC1CCN(CCCl)CC1)C(c1ccccc1)c1ccccc1,"29.1 µM [falling, single point]",
CCOc1ccc2nc(SCC(=O)NC(=O)C(C)C)sc2c1,"10 µM [falling, partial curve, poor fit]",
O=c1c2ccccc2nc(/C=C\c2ccc(F)cc2)n1-c1ccccc1F,"25.1 µM [rising, partial curve, poor fit]",
CC(C)=CCc1c2c(c3occ(-c4ccc(O)cc4)c(=O)c3c1O)C=CC(C)(C)O2,"11.2 µM [rising, partial curve]",
Cc1cccnc1-n1c(-c2ccco2)nc2ccccc2c1=O,"3.55 µM [falling, single point]",
C[C@]12CCC(=O)C=C1CC[C@@H]1[C@@H]2CC[C@@]2(C)[C@H]1CC[C@]2(C)O,"2.24 µM [rising, partial curve, poor fit]",
Cc1ccccc1C1=NCC(=S)Nc2ccc(Cl)cc21,"1.16 µM [falling, full curve, poor fit]",
COC(=O)C1=C(c2ccc(F)cc2OCc2ccccc2)C[C@@H]2CC[C@H]1N2C(=O)NC1CC1,"23.1 µM [falling, partial curve, poor fit]",
CN1CCc2c(C#N)c(Cl)nc(Cl)c2C1,"3.26 µM [falling, full curve, poor fit]",
COC(=O)C1=C(c2cccc(OCc3ccccc3)c2)C[C@@H]2CC[C@H]1N2C(=O)NCCOc1ccccc1,"23.1 µM [falling, single point]",
O=C(N/N=C\c1ccc([N+](=O)[O-])o1)c1cncc(Br)c1,"28.2 µM [falling, single point]",
CN=c1scc(C)n1/N=C/c1ccc(O)cc1O,"10 µM [falling, partial curve, poor fit]",
CCCCCCOc1ccc(CN2CCN(C)CC2)cc1,"4.61 µM [falling, single point]","2.91 µM [rising, single point]"
Cc1nc2cc(-c3ccccc3)nn2c(C)c1CCC(=O)N1CCC2(CC1)OCCO2,"2.31 µM [falling, full curve]",
Cc1ccc(CC2C(=O)N(C)C(=O)N(C)C2=O)s1,"0.58 µM [falling, full curve]",

# Another view of eight compounds above:
Structure (SMILES)	AC50 [1]	AC50 [2]
O=c1c2ccccc2nc(/C=C\c2ccc(F)cc2)n1-c1ccccc1F	25.1 µM [rising, partial curve, poor fit]	
CC(C)=CCc1c2c(c3occ(-c4ccc(O)cc4)c(=O)c3c1O)C=CC(C)(C)O2	11.2 µM [rising, partial curve]	
Cc1cccnc1-n1c(-c2ccco2)nc2ccccc2c1=O	3.55 µM [falling, single point]	
C[C@]12CCC(=O)C=C1CC[C@@H]1[C@@H]2CC[C@@]2(C)[C@H]1CC[C@]2(C)O	2.24 µM [rising, partial curve, poor fit]	
Cc1ccccc1C1=NCC(=S)Nc2ccc(Cl)cc21	1.16 µM [falling, full curve, poor fit]	
COC(=O)C1=C(c2ccc(F)cc2OCc2ccccc2)C[C@@H]2CC[C@H]1N2C(=O)NC1CC1	23.1 µM [falling, partial curve, poor fit]	
CN1CCc2c(C#N)c(Cl)nc(Cl)c2C1	3.26 µM [falling, full curve, poor fit]	
COC(=O)C1=C(c2cccc(OCc3ccccc3)c2)C[C@@H]2CC[C@H]1N2C(=O)NCCOc1ccccc1	23.1 µM [falling, single point]	

# Remaining list, next part

Structure (SMILES),AC50 [1],AC50 [2]
CCCCCn1c(N)c(C(=O)NCCN2CCOCC2)c2nc3ccccc3nc21,"35.5 µM [falling, single point]",
O=C1CN=C(c2ccccc2)c2oc3ccc(Br)cc3c2N1,"3.55 µM [rising, full curve]",
COC(=O)C1=C(c2ccc(OC(F)(F)F)cc2)C[C@@H]2CC[C@H]1N2C(=O)NCCOc1ccc(OC)cc1,"18.4 µM [falling, single point]",
COC(=O)C1=C(c2cccc(OCc3ccccc3)c2)C[C@@H]2CC[C@H]1N2C(=O)NCc1ccc(OC)c(OC)c1,"20.6 µM [falling, partial curve]",
O=C(O)c1ccccc1-c1ccc(C=C2C(=O)N(c3ccccc3)C(=S)N(c3ccccc3)C2=O)o1,"14.1 µM [falling, single point]",
O=c1c(O)c(-c2ccc(O)c(O)c2)oc2cc(O)cc(O)c12,"35.5 µM [falling, single point]",
Cc1cccc(-n2c(O)c(C=Nc3ccc(Br)cn3)c(=O)[nH]c2=O)c1,"25.1 µM [falling, single point]",
O=C(COC(=O)Cc1ccccc1)Nc1ccc(F)cc1,"0.355 µM [rising, full curve, poor fit]",
CC(C)(C)NC(=O)C1CC2CCCCC2CN1 (configuration not stated),"3.98 µM [falling, single point]",
CCOc1ccc(-n2c(O)c(C=NCCN(CC)CC)c(=O)[nH]c2=O)cc1,"29.1 µM [rising, single point]",
CC(C)C1CC(=O)NC(SCC(=O)Nc2ccc(Br)cc2)=C1C#N (configuration not stated),"12.6 µM [falling, partial curve, poor fit]",
Cc1c(/C=N/O)c2ccccc2n1C,"18.4 µM [rising, single point]",
COC(=O)C1=C(c2ccccc2OCc2ccccc2)C[C@@H]2CC[C@H]1N2C(=O)NCc1ccccc1,"20.6 µM [falling, single point]",
CC(C)c1ccc2oc(-c3cc(N)ccc3O)nc2c1,"35.5 µM [falling, partial curve, poor fit]",
Cc1cc(C(=O)OCC(=O)Nc2c(F)cccc2F)c(C)n1C1CC1,"0.164 µM [falling, full curve, poor fit]",
O=C(N/N=C/c1ccoc1)c1ccccc1O,"10 µM [falling, partial curve, poor fit]",
C=Cn1ccnc1P(=S)(c1c(C)nn(-c2ccccc2)c1C)c1nccn1C=C,"14.1 µM [falling, partial curve]","35.5 µM [rising, partial curve, poor fit]"
CCOC(=O)C1CCCN(c2ccc([N+](=O)[O-])c3nonc23)C1 (configuration not stated),"11.2 µM [rising, partial curve, poor fit]",
COc1ccccc1N1CCN(C(=O)Oc2ccccc2)CC1,"0.82 µM [rising, full curve, poor fit]",
CN1CCN(CCOC2c3ccccc3CSc3ccc(Cl)cc32)CC1 (configuration not stated),"16.4 µM [falling, single point]",
